Measurements reported in PubChem BioAssay AID1508597 (Cure First, 2020)

- Aim: 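Knock-downs altering ovarian cancer cell survival with or without PARP inhibitor rucaparib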 (primary screen)
- System: human ovarian carcinoma lines grown from tumours: OCI-P5x (papillary serous) and OCI-C5x (clear cell)
- Reagents: siRNA pool against human genes, 1.25 pmol siRNA per well
- Time to read-out: 72 h or 96 h, depending on the cell culture
- Treatment: rucaparib 20 µM (about IC30) or vehicle, present until read-out
- Measurement: 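ATP luminescence measured at 72 or 96 h according to the culture, then normalised and expressed as percent viability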
- Scale: viability, normalised: higher = more viable cells remaining
- Hit rule: 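a well counts as a hit if its normalised viability is under 80 percent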
- Calls: active = viability under 80%; inactive = viability 80% or more
The whole screen tested about 2,100 reagents; shown is a part drawn at random. 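Calls flag viability under 80% in either arm, not effects specific to rucaparib; the reference for percent is not stated.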 Entries without a mark were called inactive. No sequences are given here. The record does not give: the 100% reference.

| target gene | rucaparib or vehicle | cell line | technical replicate | viability, normalised (%) |
| --- | --- | --- | --- | --- |
| DLG5 (discs large MAGUK scaffold protein 5) | Rucaparib | OCI-C5x (clear cell) | 1 | 37.4 (active) |
| DLG5 (discs large MAGUK scaffold protein 5) | Rucaparib | OCI-C5x (clear cell) | 2 | 44.2 (active) |
| DLG5 (discs large MAGUK scaffold protein 5) | Rucaparib | OCI-C5x (clear cell) | 3 | 39.6 (active) |
| DLG5 (discs large MAGUK scaffold protein 5) | Rucaparib | OCI-P5x (serous) | 1 | 66.1 (active) |
| DLG5 (discs large MAGUK scaffold protein 5) | Rucaparib | OCI-P5x (serous) | 2 | 69.8 (active) |
| DLG5 (discs large MAGUK scaffold protein 5) | Rucaparib | OCI-P5x (serous) | 3 | 63.8 (active) |
| DLG5 (discs large MAGUK scaffold protein 5) | Vehicle | OCI-C5x (clear cell) | 1 | 48.5 (active) |
| DLG5 (discs large MAGUK scaffold protein 5) | Vehicle | OCI-C5x (clear cell) | 2 | 33.3 (active) |
| DLG5 (discs large MAGUK scaffold protein 5) | Vehicle | OCI-C5x (clear cell) | 3 | 32.1 (active) |
| DLG5 (discs large MAGUK scaffold protein 5) | Vehicle | OCI-P5x (serous) | 1 | 70 (active) |
| DLG5 (discs large MAGUK scaffold protein 5) | Vehicle | OCI-P5x (serous) | 2 | 71 (active) |
| DLG5 (discs large MAGUK scaffold protein 5) | Vehicle | OCI-P5x (serous) | 3 | 65.6 (active) |
| ARFGEF2 (ARF guanine nucleotide exchange factor 2) | Rucaparib | OCI-C5x (clear cell) | 1 | 57.9 (active) |
| ARFGEF2 (ARF guanine nucleotide exchange factor 2) | Rucaparib | OCI-C5x (clear cell) | 2 | 51.9 (active) |
| ARFGEF2 (ARF guanine nucleotide exchange factor 2) | Rucaparib | OCI-C5x (clear cell) | 3 | 56 (active) |
| ARFGEF2 (ARF guanine nucleotide exchange factor 2) | Rucaparib | OCI-P5x (serous) | 1 | 64.9 (active) |
| ARFGEF2 (ARF guanine nucleotide exchange factor 2) | Rucaparib | OCI-P5x (serous) | 2 | 51.7 (active) |
| ARFGEF2 (ARF guanine nucleotide exchange factor 2) | Rucaparib | OCI-P5x (serous) | 3 | 52.5 (active) |
| ARFGEF2 (ARF guanine nucleotide exchange factor 2) | Vehicle | OCI-C5x (clear cell) | 1 | 57 (active) |
| ARFGEF2 (ARF guanine nucleotide exchange factor 2) | Vehicle | OCI-C5x (clear cell) | 2 | 56.5 (active) |
| ARFGEF2 (ARF guanine nucleotide exchange factor 2) | Vehicle | OCI-C5x (clear cell) | 3 | 45.8 (active) |
| ARFGEF2 (ARF guanine nucleotide exchange factor 2) | Vehicle | OCI-P5x (serous) | 1 | 60.3 (active) |
| ARFGEF2 (ARF guanine nucleotide exchange factor 2) | Vehicle | OCI-P5x (serous) | 2 | 44.5 (active) |
| ARFGEF2 (ARF guanine nucleotide exchange factor 2) | Vehicle | OCI-P5x (serous) | 3 | 64.9 (active) |
| CKMT2 (creatine kinase, mitochondrial 2) | Rucaparib | OCI-C5x (clear cell) | 1 | 63.8 (active) |
| CKMT2 (creatine kinase, mitochondrial 2) | Rucaparib | OCI-C5x (clear cell) | 2 | 55.3 (active) |
| CKMT2 (creatine kinase, mitochondrial 2) | Rucaparib | OCI-C5x (clear cell) | 3 | 49.2 (active) |
| CKMT2 (creatine kinase, mitochondrial 2) | Rucaparib | OCI-P5x (serous) | 1 | 104 |
| CKMT2 (creatine kinase, mitochondrial 2) | Rucaparib | OCI-P5x (serous) | 2 | 102 |
| CKMT2 (creatine kinase, mitochondrial 2) | Rucaparib | OCI-P5x (serous) | 3 | 103 |
| CKMT2 (creatine kinase, mitochondrial 2) | Vehicle | OCI-C5x (clear cell) | 1 | 65.5 (active) |
| CKMT2 (creatine kinase, mitochondrial 2) | Vehicle | OCI-C5x (clear cell) | 2 | 79.3 (active) |
| CKMT2 (creatine kinase, mitochondrial 2) | Vehicle | OCI-C5x (clear cell) | 3 | 56 (active) |
| CKMT2 (creatine kinase, mitochondrial 2) | Vehicle | OCI-P5x (serous) | 1 | 91.5 |
| CKMT2 (creatine kinase, mitochondrial 2) | Vehicle | OCI-P5x (serous) | 2 | 92.1 |
| CKMT2 (creatine kinase, mitochondrial 2) | Vehicle | OCI-P5x (serous) | 3 | 84.4 |
| DMC1 (DNA meiotic recombinase 1) | Rucaparib | OCI-C5x (clear cell) | 1 | 42 (active) |
| DMC1 (DNA meiotic recombinase 1) | Rucaparib | OCI-C5x (clear cell) | 2 | 48.3 (active) |
| DMC1 (DNA meiotic recombinase 1) | Rucaparib | OCI-C5x (clear cell) | 3 | 47.7 (active) |
| DMC1 (DNA meiotic recombinase 1) | Rucaparib | OCI-P5x (serous) | 1 | 79.2 (active) |
| DMC1 (DNA meiotic recombinase 1) | Rucaparib | OCI-P5x (serous) | 2 | 63.6 (active) |
| DMC1 (DNA meiotic recombinase 1) | Rucaparib | OCI-P5x (serous) | 3 | 49.9 (active) |
| DMC1 (DNA meiotic recombinase 1) | Vehicle | OCI-C5x (clear cell) | 1 | 44.3 (active) |
| DMC1 (DNA meiotic recombinase 1) | Vehicle | OCI-C5x (clear cell) | 2 | 41.9 (active) |
| DMC1 (DNA meiotic recombinase 1) | Vehicle | OCI-C5x (clear cell) | 3 | 39.4 (active) |
| DMC1 (DNA meiotic recombinase 1) | Vehicle | OCI-P5x (serous) | 1 | 78.8 (active) |
| DMC1 (DNA meiotic recombinase 1) | Vehicle | OCI-P5x (serous) | 2 | 77.8 (active) |
| DMC1 (DNA meiotic recombinase 1) | Vehicle | OCI-P5x (serous) | 3 | 66.1 (active) |
| TNK2 (tyrosine kinase non receptor 2) | Rucaparib | OCI-C5x (clear cell) | 1 | 92.7 |
| TNK2 (tyrosine kinase non receptor 2) | Rucaparib | OCI-C5x (clear cell) | 2 | 121 |
| TNK2 (tyrosine kinase non receptor 2) | Rucaparib | OCI-C5x (clear cell) | 3 | 102 |
| TNK2 (tyrosine kinase non receptor 2) | Rucaparib | OCI-P5x (serous) | 1 | 109 |
| TNK2 (tyrosine kinase non receptor 2) | Rucaparib | OCI-P5x (serous) | 2 | 89.3 |
| TNK2 (tyrosine kinase non receptor 2) | Rucaparib | OCI-P5x (serous) | 3 | 89.7 |
| TNK2 (tyrosine kinase non receptor 2) | Vehicle | OCI-C5x (clear cell) | 1 | 43.4 (active) |
| TNK2 (tyrosine kinase non receptor 2) | Vehicle | OCI-C5x (clear cell) | 2 | 83 |
| TNK2 (tyrosine kinase non receptor 2) | Vehicle | OCI-C5x (clear cell) | 3 | 58.8 (active) |
| TNK2 (tyrosine kinase non receptor 2) | Vehicle | OCI-P5x (serous) | 1 | 67 (active) |
| TNK2 (tyrosine kinase non receptor 2) | Vehicle | OCI-P5x (serous) | 2 | 76.8 (active) |
| TNK2 (tyrosine kinase non receptor 2) | Vehicle | OCI-P5x (serous) | 3 | 79.4 (active) |

10 of these entries, set out differently.
target gene | rucaparib or vehicle | cell line | technical replicate | viability, normalised (%)
CKMT2 (creatine kinase, mitochondrial 2) | Vehicle | OCI-C5x (clear cell) | 3 | 56 (active)
CKMT2 (creatine kinase, mitochondrial 2) | Vehicle | OCI-P5x (serous) | 1 | 91.5
CKMT2 (creatine kinase, mitochondrial 2) | Vehicle | OCI-P5x (serous) | 2 | 92.1
CKMT2 (creatine kinase, mitochondrial 2) | Vehicle | OCI-P5x (serous) | 3 | 84.4
DMC1 (DNA meiotic recombinase 1) | Rucaparib | OCI-C5x (clear cell) | 1 | 42 (active)
DMC1 (DNA meiotic recombinase 1) | Rucaparib | OCI-C5x (clear cell) | 2 | 48.3 (active)
DMC1 (DNA meiotic recombinase 1) | Rucaparib | OCI-C5x (clear cell) | 3 | 47.7 (active)
DMC1 (DNA meiotic recombinase 1) | Rucaparib | OCI-P5x (serous) | 1 | 79.2 (active)
DMC1 (DNA meiotic recombinase 1) | Rucaparib | OCI-P5x (serous) | 2 | 63.6 (active)
DMC1 (DNA meiotic recombinase 1) | Rucaparib | OCI-P5x (serous) | 3 | 49.9 (active)
